Results deposited as PubChem BioAssay AID686938 (Drosophila RNAi Screening Center, 2013)

Aim: 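Fly genes required for calcium entry once internal stores are emptied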 (primary screen)
System: Drosophila S2R+ cells
Reagents: long dsRNA against Drosophila genes, about 0.25 µg dsRNA per well, roughly 10,000 cells
Timing: 5 days of knock-down before the calcium assay
Treatment: thapsigargin (SERCA pump blocker) to empty calcium stores; entry signal taken 4 min after adding it
Measurement: 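Per-well fluo-4 fluorescence in two replicates, unnormalised, measured in resting cells and 4 min after store depletion by the SERCA blocker thapsigargin; ratio of the two present in few wells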
Direction: calcium entry signal: higher = stronger calcium signal after store depletion; entry to resting ratio: higher = more calcium entry relative to resting level; resting calcium signal: higher = higher resting calcium signal
Hit rule: 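Called when the plate z-score of the entry-to-rest ratio, mean of duplicates, falls below −3; wells with low overall dye signal (Fmax z below −2) or more than five off-targets excluded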
Calls: active = strongly reduced calcium entry; inactive = no strong reduction
The deposit covers about 23,000 reagents; this is an unselected part of those that have a named target and a result. In the full data, 75 (0.33%) are marked active. 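Raw plate signals without normalisation; calls rest on plate z-scores that were not deposited; ratio present for only 364 wells.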 Entries without a mark were called inactive. Names joined by + are all predicted targets of the reagent. Not given: the dose of the treatment.

Target gene,amplicon,"calcium entry signal, replicate 1 (fluorescence units)","calcium entry signal, replicate 2 (fluorescence units)",entry to resting ratio,"resting calcium signal, replicate 1 (fluorescence units)","resting calcium signal, replicate 2 (fluorescence units)"
Mipp1,DRSC11223,2.60e7,3.58e7,,1.16e7,2.64e7
CG6912,DRSC16132,3.59e7,4.82e7,,1.61e7,7.37e7
boly,DRSC21629,3.37e7,3.84e7,,1.86e7,1.75e7
CG43069,DRSC05752,3.77e7,4.04e7,,1.74e7,2.03e7
Pig1,DRSC18698,3.45e7,5.52e7,2,1.72e7,2.65e7
Cht8,DRSC04546,3.93e7,4.94e7,,2.14e7,2.03e7
CG7137,DRSC07017,2.88e7,2.68e7,,1.33e7,1.42e7
CG5181,DRSC02825,4.49e7,,,2.04e7,
Sec24CD,DRSC00300,2.75e7,,,1.76e7,
Gpdh2,DRSC04346,3.87e7,3.98e7,,2.11e7,1.82e7
CG2926,DRSC12321,3.42e7,3.31e7,,1.58e7,1.53e7
CG10587,DRSC11627,3.38e7,5.10e7,,1.71e7,2.36e7
RpS5b,DRSC16173,2.72e7,5.28e7,,1.52e7,6.48e7
Hinfp,DRSC18484,2.80e7,4.52e7,2,1.42e7,1.79e7
Nup35,DRSC19999,3.25e7,3.44e7,,1.63e7,1.57e7
CG4882,DRSC04495,4.97e7,6.19e7,,2.21e7,2.54e7
CG42306 + Gint3,DRSC06934,3.75e7,3.58e7,,1.86e7,1.75e7
CG15888,DRSC15125,2.50e7,3.85e7,,1.27e7,4.95e7
Obp56b,DRSC06551,6.37e7,4.63e7,,2.56e7,2.28e7
CG34323,DRSC18916,2.75e7,3.82e7,,1.25e7,1.75e7
CG14180 (retired record),DRSC10179,1.66e7,2.26e7,,1.11e7,1.42e7
Lcp9,DRSC04287,4.48e7,5.58e7,,2.21e7,2.39e7
CG14088,DRSC10092,2.83e7,5.05e7,,1.32e7,1.99e7
hng1,DRSC04555,3.91e7,,,2.00e7,

3 neighbouring reagents already listed:
Target gene,amplicon,"calcium entry signal, replicate 1 (fluorescence units)","calcium entry signal, replicate 2 (fluorescence units)",entry to resting ratio,"resting calcium signal, replicate 1 (fluorescence units)","resting calcium signal, replicate 2 (fluorescence units)"
CG5181,DRSC02825,4.49e7,,,2.04e7,
Sec24CD,DRSC00300,2.75e7,,,1.76e7,
Gpdh2,DRSC04346,3.87e7,3.98e7,,2.11e7,1.82e7
